Measured values taken from US20070142433A1, “Angiogenesis-affecting compounds and methods of use thereof” (priority 2004, published 2007).
Where a name gives a salt, the structure may show the parent alone.

Tested on: tumor size and vessel density
Experiment: Further studies with other CPT-1 inhibitors
Conditions: CPT-1 inhibitors at 10 and 100 μm; FIGS. 37A-40

CCCCc1oc2ccccc2c1C(=O)c1cc(I)c(OCCN(CC)CC)c(I)c1 [Amiodarone Hydrochloride]
effects on tumor size and vessel density (as seen with Perhexiline): not seen
